Data as given in PubChem BioAssay AID1259254 (NCATS, 2017).
Here is an unselected part of about 59,000 reagents tested. In the full data, about 1,550 (2.6%) are marked active. 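G2 share is only a proxy for re-replication; each gene was hit by three separate siRNAs, and active genes were retested.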 Further read-outs or replicates are left out here. Not stated in the record: the amount of reagent.

Aim: 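Genome-wide screen for genes that prevent DNA re-replication in cancer cells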 (primary screen)
Cell system: human HCT116 colorectal cancer cells
Reagents: single siRNA against human genes
Timing: 3 days
Measured: 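Imaged Hoechst DNA stain sorts each cell into a cycle phase by DNA amount; per plate, G2 fraction set to 0% for non-targeting and 100% for GMNN siRNA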
Reading the numbers: G2 robust z-score and G2 cells, % of GMNN control: higher = more G2 cells, more excess DNA replication
Hit rule: 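Active siRNAs have a G2 robust z of 5 or more median absolute deviations over the median, which in these data means about 38% or higher of GMNN control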

Target gene | PubChem SID | G2 robust z-score | G2 cells, % of GMNN control | activity call
IQCF2 (GeneID 389123) | SID160766094 | -0.965 | -3.82 | inactive
IQCF2 (GeneID 389123) | SID160766096 | 0.107 | 3.72 | inactive
IQCF2 (GeneID 389123) | SID160766097 | -0.834 | -2.9 | inactive
DMRTA2 (GeneID 63950) | SID160731709 | 0.815 | 8.7 | inactive
DMRTA2 (GeneID 63950) | SID160747337 | 3.66 | 28.7 | inactive
DMRTA2 (GeneID 63950) | SID160747338 | -0.747 | -2.29 | inactive
MAT2A (GeneID 4144) | SID160776987 | -0.393 | 0.206 | inactive
MAT2A (GeneID 4144) | SID160776988 | -1.06 | -4.51 | inactive
MAT2A (GeneID 4144) | SID160776989 | -0.465 | -0.302 | inactive
PLPPR3 (GeneID 79948) | SID160724552 | -0.128 | 2.07 | inactive
PLPPR3 (GeneID 79948) | SID160724553 | 5.34 | 40.5 | active
PLPPR3 (GeneID 79948) | SID160749830 | -0.354 | 0.478 | inactive
FKBP7 (GeneID 51661) | SID160731388 | 3.8 | 29.7 | inactive
FKBP7 (GeneID 51661) | SID160741176 | -0.681 | -1.82 | inactive
FKBP7 (GeneID 51661) | SID160741177 | -0.417 | 0.0367 | inactive
MMEL1 (GeneID 79258) | SID160748797 | -0.411 | 0.0749 | inactive
MMEL1 (GeneID 79258) | SID160748798 | 0.614 | 7.29 | inactive
MMEL1 (GeneID 79258) | SID160748799 | -1.42 | -6.99 | inactive
MYH9 (GeneID 4627) | SID160730276 | -0.102 | 2.25 | inactive
MYH9 (GeneID 4627) | SID160730383 | -0.925 | -3.54 | inactive
MYH9 (GeneID 4627) | SID160731192 | -0.979 | -3.92 | inactive
CYP4F2 (GeneID 8529) | SID160720248 | 0.0459 | 3.29 | inactive
CYP4F2 (GeneID 8529) | SID160720249 | 0.0457 | 3.29 | inactive
CYP4F2 (GeneID 8529) | SID160720250 | 0.605 | 7.22 | inactive
FOXM1 (GeneID 2305) | SID160766204 | 0.859 | 9.01 | inactive
FOXM1 (GeneID 2305) | SID160766210 | 0.582 | 7.06 | inactive
FOXM1 (GeneID 2305) | SID160766221 | 0.915 | 9.41 | inactive
PPBP (GeneID 5473) | SID160714722 | -0.212 | 1.48 | inactive
PPBP (GeneID 5473) | SID160714723 | -0.54 | -0.833 | inactive
PPBP (GeneID 5473) | SID160714726 | 0.332 | 5.3 | inactive
ACOX2 (GeneID 8309) | SID160719826 | -0.79 | -2.59 | inactive
ACOX2 (GeneID 8309) | SID160719827 | 0.197 | 4.35 | inactive
ACOX2 (GeneID 8309) | SID160719829 | 1.06 | 10.4 | inactive
DNASE2B (GeneID 58511) | SID160746889 | 0.664 | 7.64 | inactive
DNASE2B (GeneID 58511) | SID160746890 | -0.276 | 1.03 | inactive
DNASE2B (GeneID 58511) | SID160746891 | 0.732 | 8.12 | inactive
APH1B (GeneID 83464) | SID160731988 | 0.0797 | 3.53 | inactive
APH1B (GeneID 83464) | SID160751143 | 4.77 | 36.5 | inactive
APH1B (GeneID 83464) | SID160751145 | 2.2 | 18.4 | inactive
KRTAP1-5 (GeneID 83895) | SID160751519 | 0.68 | 7.75 | inactive
KRTAP1-5 (GeneID 83895) | SID160751520 | -0.858 | -3.07 | inactive
KRTAP1-5 (GeneID 83895) | SID160751521 | 0.141 | 3.96 | inactive
LINC02538 (GeneID 401286) | SID160767240 | -0.967 | -3.84 | inactive
LINC02538 (GeneID 401286) | SID160767241 | -0.685 | -1.85 | inactive
LINC02538 (GeneID 401286) | SID160767242 | 9.2 | 67.7 | active
CAMK2G (GeneID 818) | SID160731977 | -1.02 | -4.2 | inactive
CAMK2G (GeneID 818) | SID160736127 | 8.53 | 63 | active
CAMK2G (GeneID 818) | SID160736137 | -0.796 | -2.63 | inactive
CHRFAM7A (GeneID 89832) | SID160753445 | -0.292 | 0.91 | inactive
CHRFAM7A (GeneID 89832) | SID160753446 | 2.37 | 19.6 | inactive
CHRFAM7A (GeneID 89832) | SID160753447 | -0.35 | 0.504 | inactive
CHL1 (GeneID 10752) | SID160729150 | -0.993 | -4.02 | inactive
CHL1 (GeneID 10752) | SID160729151 | 0.0965 | 3.65 | inactive
CHL1 (GeneID 10752) | SID160729152 | -1.1 | -4.76 | inactive
GNPTAB (GeneID 79158) | SID160748719 | -0.83 | -2.87 | inactive
GNPTAB (GeneID 79158) | SID160748721 | -0.404 | 0.124 | inactive
GNPTAB (GeneID 79158) | SID160748722 | 2.84 | 22.9 | inactive
MUC12 (GeneID 10071) | SID160724936 | 2.91 | 23.4 | inactive
MUC12 (GeneID 10071) | SID160724940 | -0.412 | 0.0676 | inactive
MUC12 (GeneID 10071) | SID160724950 | -0.439 | -0.119 | inactive
ELK1 (GeneID 2002) | SID160759905 | 4.97 | 37.9 | inactive
ELK1 (GeneID 2002) | SID160759915 | 0.493 | 6.44 | inactive
ELK1 (GeneID 2002) | SID160759925 | 0.378 | 5.63 | inactive
LYPD2 (GeneID 137797) | SID160732490 | 1.33 | 12.3 | inactive
LYPD2 (GeneID 137797) | SID160732491 | -0.343 | 0.557 | inactive
LYPD2 (GeneID 137797) | SID160757529 | -1.34 | -6.48 | inactive
PARS2 (GeneID 25973) | SID160737360 | -0.0751 | 2.44 | inactive
PARS2 (GeneID 25973) | SID160737361 | -1.12 | -4.88 | inactive
PARS2 (GeneID 25973) | SID160737362 | 0.762 | 8.33 | inactive

12 entries from above, set out differently:
| Target gene | PubChem SID | G2 robust z-score | G2 cells, % of GMNN control | activity call |
| --- | --- | --- | --- | --- |
| DNASE2B (GeneID 58511) | SID160746891 | 0.732 | 8.12 | inactive |
| APH1B (GeneID 83464) | SID160731988 | 0.0797 | 3.53 | inactive |
| APH1B (GeneID 83464) | SID160751143 | 4.77 | 36.5 | inactive |
| APH1B (GeneID 83464) | SID160751145 | 2.2 | 18.4 | inactive |
| KRTAP1-5 (GeneID 83895) | SID160751519 | 0.68 | 7.75 | inactive |
| KRTAP1-5 (GeneID 83895) | SID160751520 | -0.858 | -3.07 | inactive |
| KRTAP1-5 (GeneID 83895) | SID160751521 | 0.141 | 3.96 | inactive |
| LINC02538 (GeneID 401286) | SID160767240 | -0.967 | -3.84 | inactive |
| LINC02538 (GeneID 401286) | SID160767241 | -0.685 | -1.85 | inactive |
| LINC02538 (GeneID 401286) | SID160767242 | 9.2 | 67.7 | active |
| CAMK2G (GeneID 818) | SID160731977 | -1.02 | -4.2 | inactive |
| CAMK2G (GeneID 818) | SID160736127 | 8.53 | 63 | active |
